Drawing on PubChem BioAssay AID2685 (National Center for Advancing Translational Sciences (NCATS), 2010), this text covers cell number change and AC50 for 59 molecules.

This assay in a line: qHTS Assay for Lipid Storage Modulators in Drosophila S3 Cells.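 For cell number change: cells counted by Cell Tracker Red CMTPX staining in the red channel.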 Conditions: BODIPY lipid droplet fluorescence, 18-24 h; for cell number change: measured here: cell count max response, cells fed with added oleic acid. In a few lines:
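Drosophila S3 cells loaded with oleic acid (400 uM, as added) and compounds at several concentrations; lipid droplets imaged by 488-nm laser-scanning cytometry, 500–530 nm intensity and object ratio to cell channel. Percent activity normalized to 20 uM Triacsin C.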
A general note: Quantitative high-throughput screening tests each substance at several concentrations.

[1] abbreviates: measured here: cell number channel AC50, cells fed with added oleic acid.
Setting [2] is: measured here: lipid fluorescence (Fed channel) AC50, cells fed with added oleic acid.

Some of the results follow. Shown are side measurements of this screen, not its main read-out; they come without a call. Most of these compounds were active or inconclusive in the main read-out, so they are no random draw. Words in brackets tell the shape of the fitted curve; partial curves, single points and poor fits give uncertain potencies.

As usually defined, the AC50 is the concentration at which the activity in the assay is half-maximal. Lower therefore signals greater potency. With `Cc1ccc(S(=O)(=O)NCCC(=O)NC2CCCCC2C)cc1` (stereo not drawn), the cell number change was 10%. Further, the AC50 under setting [1] is 6.51 µM [falling, single point]. Further, the concentration at half-maximal activity (AC50) under setting [2] was 0.731 µM [falling, full curve, poor fit].
Turning to `O=C(c1ccco1)N1CCN(c2ncnc3sc4c(c23)CCC4)CC1`, the cell number change was -6.05%. In addition, the AC50 under setting [2] is 2.06 µM [rising, partial curve].
Turning to `CCOC(=O)Nc1ccc2c(c1)N(C(=O)CN(CC)CC)c1ccccc1C=C2`, the cell number change was -11.4%. Under setting [2], the AC50 was 20.6 µM [falling, partial curve].
For the molecule `Cn1c(=O)[nH]c(=O)c2c1nc(N1CCOCC1)n2CCN1CCOCC1`, the cell number change is -17.3%. For the same molecule, the concentration at half-maximal activity (AC50) under setting [2] was 0.164 µM [falling, full curve].
Turning to `CC(SC(=S)N(C)Cc1cccs1)C(=O)O` (stereo not drawn), the cell number change was determined as 82.3%. Moreover, the AC50 under setting [1] is 13 µM [rising, partial curve]. For the same molecule, under setting [2], the AC50 was 0.651 µM [falling, full curve].
With `CCn1cc(CN2CCC(C(=O)Nc3cccc(-c4cccc(Cl)c4)c3)CC2)c(C)n1`, the cell number change is -50.6%. Further, the AC50 under setting [1] was 35.5 µM [falling, single point].
On to `O=C(Cc1nnc(NC(=O)c2ccccc2)s1)N/N=C/c1ccco1`, for which the cell number change was 4.03%. In addition, the AC50 under setting [1] is 6.51 µM [rising, partial curve, poor fit]. Besides, the AC50 under setting [2] is 6.51 µM [rising, partial curve, poor fit].
For `CCn1c(SCc2nc3ccccc3[nH]2)nnc1-c1cccnc1`, the half-maximal activity concentration (AC50) under setting [1] was 0.0731 µM [rising, full curve, poor fit].
Take `O=C(NCCN1CCOCC1)c1ccc(=O)oc1`: the cell number change turned out to be 8.24%. For the same molecule, under setting [2], the AC50 was 16.4 µM [falling, single point].
Consider `O=C(COc1ccccc1)OCC(=O)c1ccc(S(=O)(=O)N2CCCCC2)cc1`, for which the cell number change is -31.5%. The AC50 under setting [1] was 11.6 µM [falling, partial curve, poor fit]. Moreover, the AC50 under setting [2] was 29.1 µM [rising, single point].
Consider `O=C(Nc1cccc(C(F)(F)F)c1)c1csc(-c2ccncc2)n1`, for which the cell number change was -30.4%.
Turning to `CCOC(=O)Cn1c(=O)cnc2ccccc21`, the cell number change is -48.5%. The AC50 under setting [1] is 0.146 µM [falling, full curve]. Under setting [2], the AC50 is 0.259 µM [falling, partial curve, poor fit].
With `CCCN(CC(=O)Nc1cc(Cl)ccc1Cl)C(=O)c1ccc2n[nH]nc2c1`, the cell number change turned out to be 6.46%.
`CC(=O)N1CCN(c2ccc(NS(=O)(=O)c3ccc(C)cc3)cc2)CC1`: the cell number change was 19.7%.
With `N#Cc1c(NC(=O)/C=C/c2ccco2)sc2c1CCCC2`, the cell number change was -48%. Besides, the concentration at half-maximal activity (AC50) under setting [1] was 13 µM [falling, partial curve]. Moreover, under setting [2], the half-maximal activity concentration (AC50) is 16.4 µM [falling, single point].
Turning to `Cc1ccc2c(C)nc(N/C(N)=N/S(=O)(=O)c3ccccc3)nc2c1`, the cell number change is 57.8%. Besides, the AC50 under setting [2] was 0.00461 µM [falling, full curve, poor fit].
In the case of `COc1ccc(-c2nc3ccc(C(=O)NCC(OC)OC)cc3nc2-c2ccc(OC)cc2)cc1`, the cell number change was -39.6%. Further, the AC50 under setting [1] is 25.9 µM [falling, single point]. The concentration at half-maximal activity (AC50) under setting [2] is 29.1 µM [falling, partial curve].
As to `Cc1ccc(N(C)S(=O)(=O)c2cccc(C(=O)NC3=NCCS3)c2)cc1`, the cell number change amounted to 31.9%. Besides, under setting [1], the AC50 is 1.64 µM [rising, full curve]. The half-maximal activity concentration (AC50) under setting [2] is 10.3 µM [rising, partial curve].
Consider `Cc1ccccc1C(=O)Oc1ccc(Sc2ccc(O)cc2)cc1`, for which the cell number change was -62.5%. Further, the half-maximal activity concentration (AC50) under setting [1] was 16.4 µM [falling, single point]. Moreover, the AC50 under setting [2] is 3.26 µM [rising, full curve].
`C/C=C/C=C(/NC(=O)c1ccccc1)C(=O)Nc1ccccc1`: the cell number change turned out to be 6.94%. Moreover, the half-maximal activity concentration (AC50) under setting [2] was 0.116 µM [rising, full curve].
For `COc1ccc(C(=O)NNC(=O)c2ccc(S(=O)(=O)N3CCOCC3)cc2)cc1`, the AC50 under setting [2] was 2.91 µM [rising, partial curve].
Take `COc1ccc(C(C(=O)NC2CCCCC2)N(C(=O)c2snc(C(N)=O)c2N)c2ccc(OC)cc2OC)cc1` (stereo not drawn): the cell number change is -2.61%.
In the case of `Cc1noc(C)c1C(c1ccccc1)c1ccccc1`, the cell number change worked out at 12.2%. Moreover, the AC50 under setting [2] was 18.4 µM [rising, single point].
`COc1ccc(NC(=S)NN2CCOCC2)cc1OC`: the cell number change turned out to be 2.08%.
`Cc1cc(=O)[nH]c(N/N=C/c2cccc(Br)c2)n1`: the cell number change was found to be 5.47%. Besides, the AC50 under setting [2] is 29.1 µM [falling, single point].
As for `c1ccc(CNn2nnnc2-c2ccccc2)cc1`, the cell number change is -13.4%.
On to `CCOc1cc(NS(=O)(=O)c2ccc(NC(C)=O)cc2)c(OCC)cc1NC(=O)c1cccs1`, for which the cell number change was 9.5%. In addition, under setting [2], the concentration at half-maximal activity (AC50) was 9.2 µM [rising, partial curve].
Consider `CCOC(=O)C1=C(COC(=O)c2ccc([N+](=O)[O-])o2)NC(=O)NC1C` (stereo not drawn), for which the cell number change is -30.7%. Besides, under setting [1], the AC50 was 6.51 µM [falling, full curve, poor fit]. Further, the AC50 under setting [2] was 29.1 µM [falling, single point].
For `O=C(CSCCO)Nc1cccc([N+](=O)[O-])c1`, the cell number change was found to be 37%. Further, the AC50 under setting [1] is 7.31 µM [rising, partial curve].
Consider `Cc1cc(C(=O)O)c(C)n1-c1ccccc1`, for which the cell number change was determined as 5.72%. For the same molecule, the AC50 under setting [2] is 0.82 µM [falling, full curve].
Consider `Cc1nnc(NC(=O)C2CCN(C(=O)c3ccco3)CC2)s1`, for which the cell number change is 26.6%.
`CN1/C(=C\C(=O)c2ccco2)C(C)(C)c2ccccc21`: the cell number change was -39.7%. For the same molecule, under setting [1], the concentration at half-maximal activity (AC50) was 25.9 µM [falling, single point]. Moreover, the AC50 under setting [2] is 29.1 µM [falling, single point].
As to `CN(C(=O)Cc1c(C(=O)O)n(C)c2ccccc12)c1cccc(C(F)(F)F)c1`, the cell number change was found to be 42.3%. In addition, under setting [1], the AC50 is 9.2 µM [rising, partial curve, poor fit].
`NC(=O)COC(=O)c1c2c(nc3ccccc13)CCCC2`: the cell number change was determined as 3.38%.
Turning to `Cc1onc(-c2ccccc2Cl)c1C(=O)N1C=CC(C(F)(F)Cl)=NCC1`, the cell number change worked out at 13.8%. Further, the AC50 under setting [2] was 14.6 µM [rising, partial curve, poor fit].
On to `COc1ccc(C(=O)Nc2cccc(/C=C/c3nc4ccccc4c(=O)[nH]3)c2)cc1`, for which the cell number change stood at 9.96%. In addition, the AC50 under setting [2] is 32.6 µM [falling, single point].
As to `CCOC(=O)c1sc(NC(=O)C(CC)OC(=O)c2ccco2)nc1C` (stereo not drawn), the cell number change amounted to 8.7%. For the same molecule, under setting [1], the half-maximal activity concentration (AC50) is 4.61 µM [rising, partial curve, poor fit].
With `O=C(O)c1cccc(S(=O)(=O)N(Cc2ccccc2)c2cccc(C(F)(F)F)c2)c1`, the cell number change came out at 5.31%. Further, the AC50 under setting [2] is 3.26 µM [falling, partial curve].
Take `CCOC(=O)c1ccc2cccc(C)n2c1=O`: the cell number change was -26.7%. Moreover, under setting [1], the AC50 is 0.00517 µM [falling, full curve, poor fit].
As to `CCN(CC)C(=O)c1cncc(C(=O)N(CC)CC)c1-c1ccccc1`, the cell number change turned out to be 8.45%. Moreover, the AC50 under setting [2] is 8.2 µM [rising, partial curve].
For the molecule `O=C(c1cc2ccccc2o1)N(Cc1nnc(-c2ccccc2Cl)o1)C1CC1`, the cell number change was -6.41%. Moreover, the AC50 under setting [2] is 1.84 µM [rising, partial curve].
As for `Cc1ccc(C(=O)N2CCN(S(=O)(=O)N3CCCCC3)CC2)cc1`, the cell number change stood at 11.8%. Moreover, under setting [2], the half-maximal activity concentration (AC50) was 4.61 µM [falling, single point].
Turning to `CCc1cccc(NC(=O)CSC2=NS(=O)(=O)c3ccccc32)c1`, the cell number change stood at 13.5%. Under setting [2], the AC50 is 2.59 µM [falling, full curve].
Consider `COc1ccccc1NC(=O)CCc1nnc2ccc(N3CCC4(CC3)OCCO4)nn12`, for which the concentration at half-maximal activity (AC50) under setting [2] is 1.64 µM [falling, partial curve].
Regarding `CCOc1ccc(OCC)c(NC(=O)CN2CCN(C(=O)c3ccco3)CC2)c1`, the cell number change is -1.48%. For the same molecule, the AC50 under setting [2] is 6.51 µM [rising, single point].
For `Cc1cc(NC(=O)Cc2csc(-c3ccccc3)n2)ccc1Br`, the cell number change is 8.15%. In addition, the concentration at half-maximal activity (AC50) under setting [2] is 0.164 µM [rising, full curve, poor fit].
Regarding `O=C(CC1SC(=NCC2CCCO2)NC1=O)Nc1cccc2ccccc12` (stereo not drawn), the cell number change is 4.95%.
Regarding `O=C(OCC(=O)N1CCN(C(=O)COC(=O)c2ccncc2)CC1)c1ccncc1`, the cell number change is 3.82%. For the same molecule, the AC50 under setting [1] is 0.517 µM [rising, full curve, poor fit].
As to `COC(=O)/C(=C\c1cc(OC)c(OC)c(OC)c1)c1nc2ccccc2[nH]1`, the cell number change was -41.4%. Moreover, the AC50 under setting [1] is 29.1 µM [falling, single point]. Also, the AC50 under setting [2] is 29.1 µM [falling, partial curve].
As for `N/C(Cc1ccc(Cl)cc1)=N\OC(=O)c1ccc2ccccc2c1`, the cell number change was determined as 25.5%. The half-maximal activity concentration (AC50) under setting [2] was 4.61 µM [falling, partial curve, poor fit].
Consider `CCOC(=O)c1cc(NC(=O)c2ccccc2)c(=O)oc1C(F)(F)F`, for which the cell number change worked out at 11.9%. Moreover, under setting [1], the AC50 is 0.00731 µM [rising, full curve, poor fit].
As to `Clc1ccc(-c2nc3ccncc3[nH]2)cc1`, the cell number change came to 1.59%. Besides, the concentration at half-maximal activity (AC50) under setting [2] is 0.82 µM [rising, full curve].
`c1ccc(CNc2nc(NCc3ccccc3)c3ccccc3n2)cc1`: the AC50 under setting [2] was 4.61 µM [falling, full curve, poor fit].
Regarding `CCOC(=O)c1c(N)sc(C(=O)Nc2ccc3c(c2)OCO3)c1C`, the cell number change is -7.97%. For the same molecule, the concentration at half-maximal activity (AC50) under setting [2] was 0.58 µM [rising, single point].
For the molecule `Cc1cccc(NC(=O)C2CCN(C(=O)[C@@H]3Cc4ccccc4CN3)CC2)c1`, the cell number change came to 59%. Also, the half-maximal activity concentration (AC50) under setting [1] is 25.9 µM [rising, single point]. The half-maximal activity concentration (AC50) under setting [2] was 25.9 µM [rising, single point].
Turning to `CCc1ccc(OCc2ccc(C(=O)OC)o2)cc1`, the cell number change was determined as 57.4%.
For `COc1ccc(NC(=O)Nc2ccc(OCc3ccccc3)cc2)cn1`, the cell number change was 15%. In addition, the AC50 under setting [2] is 0.731 µM [rising, partial curve, poor fit].
As for `CC(C)CC(=O)OC1C(N2CCOCC2)c2c(ccc(/C=C/C(=O)N3CCOCC3)c2O)OC1(C)C` (stereo not drawn), the cell number change was -49.4%. For the same molecule, the half-maximal activity concentration (AC50) under setting [1] was 29.1 µM [falling, single point]. Under setting [2], the AC50 was 29.1 µM [falling, single point].
As to `CC1(C)CC(=O)C(C=NCCN2CCN(CC(=O)Nc3ccc(Cl)cc3)CC2)=C(O)C1`, the cell number change is -9.34%. In addition, under setting [1], the half-maximal activity concentration (AC50) is 0.00461 µM [falling, full curve, poor fit].
